US20250304707A1
Numbering of substitutions follows the chain as printed. Results are given in words; binding and its absence hold for the method and conditions named. Some binding calls cover weakened binding; strength is not graded here.

By UniProt entry, the sequences of proteins in these tests, tags left out. Where a name states a change or a piece, a line headed by the entry shows the natural chain unless it says otherwise. Chains listed by the source or under a name are the forms on record and can include a tag or linker.
rhesus BCMA (F7FFA0, form named): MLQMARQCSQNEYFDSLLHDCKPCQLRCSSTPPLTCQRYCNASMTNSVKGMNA

B1: Antibody 01-001 (antibody, human IgG1, kappa, L234A L235A, V domains shown)
VH: EVQLVQSGGGLVQPGGSLRLSCAVSGFTLSSSAMSWVRQAPGKGFEWVSGYNGGSDRAGFADSVEGRFTISRDNAKNTLYLQMNSLKPEDTAVYYCARYIANSGTYYWDYWGQGTLVTVSS
VL: QPVLTQPPSASGTPGQRVTISCSGSSSNIGSNTVNWYQQLPGTAPKLLIYNDSQRPSGVPDQFSGSKSGTSASLAISGLQSDNEADYYCAAWDGSLNVWMFGGGTKVTVLR
B2: Antibody 01-006 (antibody, human IgG1, kappa, L234A L235A, V domains shown)
VH: B1 VH with A23S, V24A, L29F, S32G, A33L, F60Y, A61T, E65K
VL: QAVLTQPPSVSGTPGQRVTISCSGSTSNIGHRTVNWYQQFPGAAPKLLIYRNNQRPSGVPARFSGSKSGTSASLAISGLQSEDEADYHCAAWDDSLTAWVFGGGTQLTVLR
B3: Antibody 01-016 (antibody, human IgG1, kappa, L234A L235A, V domains shown)
VH: B1 VH with L29F, A33V
VL: QPVLTQPPSVSEAPRQRVTISCSGSSSNIGNNAVNWYQQLPGKAPKLLIFKNNQRPSGVPDRFSGSKSGTSASLVISGLQSEDEADYYCAAWDGSLNAWMFGGGTKLTVLR
B4: Antibody 01-024 (antibody, human IgG1, kappa, L234A L235A, V domains shown)
VH: EVQLVQSGGGLVQSGGSLRVSCAASGFTFSSGLMSWVRQAPGKGFEWVSCYNGGSDRAGYTDSVKGRFTISRDNAKNTLYLQMNSLKPEDTAVYYCARYIANSGTYYWDYWGQGTTVTVSS
VL: QAVLTQPPSASGTPGQRVSISCSGGISNIGSNIVNWYQHLPGTAPKLLIYSGNQRPSGVPDRFSGSKSGTSASLAISGLQSEDEADYYCSSWDSDLRNWVFGGGTKLTVLR
B5: Antibody 01-025 (antibody, human IgG1, kappa, L234A L235A, V domains shown)
VH: B4 VH with C50G
VL: B3 VL with F50Y, K51S, N52T, V75A, G94D, S95R, L96V, N97S, M100L
B6: Antibody 01-026 (antibody, human IgG1, kappa, L234A L235A, V domains shown)
VH: B4 VH with C50G
VL: QSVLTQPPSVSGAPGQRVTISCTGSSSNIGAGYDVHWYQQLPGTAPKLVIYGNTNRPSGVPDRFSGSKSGTSASLAISGLQSEDEADYYCAAWDDSLNGWVFGGGTKLTVLR
B7: Antibody 01-027 (antibody, human IgG1, kappa, L234A L235A, V domains shown)
VH: B4 VH with C50G
VL: B4 VL
B8: Antibody 01-030 (antibody, human IgG1, kappa, L234A L235A, V domains shown)
VH: B1 VH with L20V, V24A, T28S, L29F, S32G, A33L
VL: QSALTQPPSASGTPGQRVTISCSGSISNIGSNTVNWYQHLPGTAPKLLIYNHNQRPSGVPDRFSGSTSGTSASLAISGLQSEDEADYFCATWDDSLSAWLFGGGTKLTVLR
B9: Antibody 01-037 (antibody, human IgG1, kappa, L234A L235A, V domains shown)
VH: B4 VH with C50G
VL: SYVLTQPPSASGTPGQRVTISCSGTRSNIGTNTVNWYQQLPGTAPKLLIYRNNQRPSGVPDRFSGSKSGTSASLAISGLQSEDEADYYCAVWDDRVSAWLFGGGTKLTVLR
B10: 01-001 (Fab) (Fab, V domains shown)
VH: B1 VH
VL: QPVLTQPPSASGTPGQRVTISCSGSSSNIGSNTVNWYQQLPGTAPKLLIYNDSQRPSGVPDQFSGSKSGTSASLAISGLQSDNEADYYCAAWDGSLNVWMFGGGTKVTVL
B11: 01-006 (Fab) (Fab, V domains shown)
VH: B4 VH with S14P, V20L, A23S, C50G, T116L
VL: QAVLTQPPSVSGTPGQRVTISCSGSTSNIGHRTVNWYQQFPGAAPKLLIYRNNQRPSGVPARFSGSKSGTSASLAISGLQSEDEADYHCAAWDDSLTAWVFGGGTQLTVL
B12: 01-016 (Fab) (Fab, V domains shown)
VH: B1 VH with L29F, A33V
VL: QPVLTQPPSVSEAPRQRVTISCSGSSSNIGNNAVNWYQQLPGKAPKLLIFKNNQRPSGVPDRFSGSKSGTSASLVISGLQSEDEADYYCAAWDGSLNAWMFGGGTKLTVL

target: rhesus BCMA (rhesus) (UniProt F7FFA0); test: BLI (Octet RED384), rhesus BCMA on AR2G sensors

binding, binds:
B1
B2
B3
B4
B5
B6
B7
B8
B9

target: rhesus BCMA (rhesus) (UniProt F7FFA0); test: ELISA, immobilized antigen, E. coli supernatant

binding, binds:
B10
B11
B12
